The results in this text go back to PMC11251182, “Tubular insulin-induced gene 1 deficiency promotes NAD^+ consumption and exacerbates kidney fibrosis” (EMBO Molecular Medicine, 2024).

Protein sequences, listed by entry. Tags and fused reporters are not part of them. Residues count along the entry.
UniProt Q9EQY0, residues 21-977: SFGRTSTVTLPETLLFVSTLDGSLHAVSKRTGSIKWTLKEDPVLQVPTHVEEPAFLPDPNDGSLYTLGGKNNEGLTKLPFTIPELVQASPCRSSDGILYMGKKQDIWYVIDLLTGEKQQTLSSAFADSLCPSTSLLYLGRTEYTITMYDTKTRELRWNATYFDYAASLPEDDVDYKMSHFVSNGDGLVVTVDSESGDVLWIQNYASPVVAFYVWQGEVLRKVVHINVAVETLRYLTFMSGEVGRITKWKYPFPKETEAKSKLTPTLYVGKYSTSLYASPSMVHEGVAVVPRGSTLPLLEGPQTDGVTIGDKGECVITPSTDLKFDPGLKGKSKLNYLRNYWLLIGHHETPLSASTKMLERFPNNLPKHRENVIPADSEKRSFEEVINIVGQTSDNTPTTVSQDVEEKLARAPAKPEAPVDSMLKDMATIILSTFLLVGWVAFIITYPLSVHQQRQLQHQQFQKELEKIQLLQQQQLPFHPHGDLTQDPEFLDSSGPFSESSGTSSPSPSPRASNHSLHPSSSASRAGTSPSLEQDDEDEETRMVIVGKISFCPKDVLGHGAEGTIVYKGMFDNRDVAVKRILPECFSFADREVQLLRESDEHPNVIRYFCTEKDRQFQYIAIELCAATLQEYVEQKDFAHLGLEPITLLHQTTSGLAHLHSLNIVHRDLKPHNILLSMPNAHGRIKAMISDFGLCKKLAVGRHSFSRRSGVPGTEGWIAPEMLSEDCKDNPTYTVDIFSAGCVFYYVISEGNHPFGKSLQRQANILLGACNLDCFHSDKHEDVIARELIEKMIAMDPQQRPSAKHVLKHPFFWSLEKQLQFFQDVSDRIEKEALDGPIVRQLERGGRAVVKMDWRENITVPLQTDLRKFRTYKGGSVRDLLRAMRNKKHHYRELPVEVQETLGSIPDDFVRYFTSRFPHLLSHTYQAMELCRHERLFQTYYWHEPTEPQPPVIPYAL
UniProt P20029, residues 20-655: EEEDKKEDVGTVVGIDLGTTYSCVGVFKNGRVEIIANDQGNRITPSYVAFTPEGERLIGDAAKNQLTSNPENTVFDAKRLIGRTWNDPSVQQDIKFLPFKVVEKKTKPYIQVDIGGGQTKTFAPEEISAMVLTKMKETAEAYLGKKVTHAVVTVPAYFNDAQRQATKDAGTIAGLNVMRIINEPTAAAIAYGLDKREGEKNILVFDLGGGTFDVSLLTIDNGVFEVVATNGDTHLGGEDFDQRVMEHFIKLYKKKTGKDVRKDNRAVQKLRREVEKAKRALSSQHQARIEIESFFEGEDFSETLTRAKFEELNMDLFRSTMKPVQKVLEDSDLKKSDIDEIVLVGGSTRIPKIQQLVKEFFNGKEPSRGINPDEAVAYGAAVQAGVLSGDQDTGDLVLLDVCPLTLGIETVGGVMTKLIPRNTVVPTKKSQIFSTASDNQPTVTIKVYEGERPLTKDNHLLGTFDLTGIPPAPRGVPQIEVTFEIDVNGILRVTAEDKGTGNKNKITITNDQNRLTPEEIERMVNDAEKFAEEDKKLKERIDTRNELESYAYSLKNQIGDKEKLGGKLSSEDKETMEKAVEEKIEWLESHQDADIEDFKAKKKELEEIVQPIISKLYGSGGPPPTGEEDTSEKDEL

These are yes or no findings as the source states them, for the method shown. Binding seen in cells or lysates may run through a third protein. Some results given as binding are weak or reduced against the parent protein; the word gives no strength.

This assay addresses kinase/endoribonuclease inositol-requiring enzyme 1α (IRE1α) (mouse (endogenous in TKPTS)) (UniProt Q9EQY0). Kind of assay: co-IP; TKPTS cells; Insig1-silenced, Aldh1a1-silenced or NAD+-treated (Fig. 8H-J), and nicardipine-treated cells stimulated by TGF-β1 (Fig. 9N); which protein was precipitated is not told.

As for “ER stress sensor GRP78/BIP (from UniProt P20029 20-655)”, the binding entry was “binds”.
